The assay deals with hyperphosphorylated TTP (from okadaic acid-treated HEK‑293T cells) (human) (UniProt P26651). As to the kind of experiment: pull-down; hyperphosphorylated TTP from okadaic acid-treated (1 µM, 90 min) HEK-293T cells as bait (Supplementary Fig. 7c,e,f); details not shown.

Amino acid sequences for entries named in this document (tags omitted).
UniProt P26651: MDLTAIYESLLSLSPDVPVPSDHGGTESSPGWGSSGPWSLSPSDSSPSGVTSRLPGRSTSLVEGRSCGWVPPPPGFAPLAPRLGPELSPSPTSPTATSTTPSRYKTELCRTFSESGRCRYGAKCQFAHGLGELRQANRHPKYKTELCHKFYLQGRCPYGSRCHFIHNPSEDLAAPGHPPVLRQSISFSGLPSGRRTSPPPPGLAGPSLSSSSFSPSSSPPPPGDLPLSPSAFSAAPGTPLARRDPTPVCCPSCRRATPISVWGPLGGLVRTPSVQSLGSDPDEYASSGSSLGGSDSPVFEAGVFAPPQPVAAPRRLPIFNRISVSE

We go through 1 molecule from PMC12350847.

No constants are given. Whether binding was seen depends on the method and setting. In cells and extracts the contact can be indirect. Some results given as binding are weak or reduced against the parent protein; the word gives no strength.

B1: 14‑3‑3η (protein, UniProt Q04917 1-246)
chain: MGDREQLLQRARLAEQAERYDDMASAMKAVTELNEPLSNEDRNLLSVAYKNVVGARRSSWRVISSIEQKTMADGNEKKLEKVKAYREKIEKELETVCNDVLSLLDKFLIKNCNDFQYESKVFYLKMKGDYYRYLAEVASGEKKNSVVEASEAAYKEAFEISKEQMQPTHPIRLGLALNFSVFYYEIQNAPEQACLLAKQAFDDAIAELDTLNEDSYKDSTLIMQLLRDNLTLWTSDQQDEEAGEGN
In the case of B1, the binding entry is “binds”.
